Experimental data taken from article doi:10.1101/2023.09.27.559872.
Results are given in words; binding and its absence hold for the method and conditions named. In cells and extracts the contact can be indirect. Some entries that bind do so weakly or less than the wild type. For some of these results: Sequences can lack the tags named with a protein.

The chains behind the UniProt entries cited, without tags or fusion partners.
UniProt P23443: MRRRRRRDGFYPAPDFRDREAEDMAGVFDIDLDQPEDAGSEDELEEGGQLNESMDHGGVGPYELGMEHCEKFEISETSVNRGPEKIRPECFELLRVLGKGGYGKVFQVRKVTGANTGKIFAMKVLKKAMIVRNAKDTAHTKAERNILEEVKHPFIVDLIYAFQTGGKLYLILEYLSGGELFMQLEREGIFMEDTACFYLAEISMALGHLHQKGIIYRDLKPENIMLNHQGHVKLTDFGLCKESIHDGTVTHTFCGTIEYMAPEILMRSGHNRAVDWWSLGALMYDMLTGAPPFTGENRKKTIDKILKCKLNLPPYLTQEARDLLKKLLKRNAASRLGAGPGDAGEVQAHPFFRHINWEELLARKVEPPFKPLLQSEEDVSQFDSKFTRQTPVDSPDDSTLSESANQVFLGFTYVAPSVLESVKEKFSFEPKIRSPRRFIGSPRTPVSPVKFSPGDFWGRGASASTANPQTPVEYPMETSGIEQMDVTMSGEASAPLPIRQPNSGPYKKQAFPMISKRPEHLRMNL
UniProt Q14240: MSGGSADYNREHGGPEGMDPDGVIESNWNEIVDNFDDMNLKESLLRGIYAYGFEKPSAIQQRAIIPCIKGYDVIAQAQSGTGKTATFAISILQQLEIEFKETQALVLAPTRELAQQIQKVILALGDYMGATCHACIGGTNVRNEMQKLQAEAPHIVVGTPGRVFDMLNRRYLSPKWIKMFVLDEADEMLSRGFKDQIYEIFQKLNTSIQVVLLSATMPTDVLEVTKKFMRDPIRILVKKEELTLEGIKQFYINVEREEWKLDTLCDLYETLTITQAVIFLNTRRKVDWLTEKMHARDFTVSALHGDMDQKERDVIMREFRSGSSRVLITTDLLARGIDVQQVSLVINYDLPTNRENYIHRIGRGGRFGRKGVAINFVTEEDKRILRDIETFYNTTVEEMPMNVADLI
UniProt P38919: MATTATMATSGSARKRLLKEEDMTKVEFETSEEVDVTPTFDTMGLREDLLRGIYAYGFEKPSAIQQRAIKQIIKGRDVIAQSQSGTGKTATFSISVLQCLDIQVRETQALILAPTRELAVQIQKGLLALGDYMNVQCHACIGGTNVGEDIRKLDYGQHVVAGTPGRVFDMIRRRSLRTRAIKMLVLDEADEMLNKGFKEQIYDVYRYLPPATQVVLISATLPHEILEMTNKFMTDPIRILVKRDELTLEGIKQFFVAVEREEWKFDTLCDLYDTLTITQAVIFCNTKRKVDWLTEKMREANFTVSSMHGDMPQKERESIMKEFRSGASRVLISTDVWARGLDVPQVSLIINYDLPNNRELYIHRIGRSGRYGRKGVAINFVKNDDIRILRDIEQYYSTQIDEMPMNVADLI
UniProt P05198: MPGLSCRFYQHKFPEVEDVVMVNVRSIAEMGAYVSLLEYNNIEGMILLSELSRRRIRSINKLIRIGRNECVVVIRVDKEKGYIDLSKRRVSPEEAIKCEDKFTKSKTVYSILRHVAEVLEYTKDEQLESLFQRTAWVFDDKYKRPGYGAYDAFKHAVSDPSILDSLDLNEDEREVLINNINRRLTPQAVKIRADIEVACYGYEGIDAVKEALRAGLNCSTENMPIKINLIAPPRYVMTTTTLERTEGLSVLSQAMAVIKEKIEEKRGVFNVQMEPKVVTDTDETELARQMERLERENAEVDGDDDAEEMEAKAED
UniProt P60842: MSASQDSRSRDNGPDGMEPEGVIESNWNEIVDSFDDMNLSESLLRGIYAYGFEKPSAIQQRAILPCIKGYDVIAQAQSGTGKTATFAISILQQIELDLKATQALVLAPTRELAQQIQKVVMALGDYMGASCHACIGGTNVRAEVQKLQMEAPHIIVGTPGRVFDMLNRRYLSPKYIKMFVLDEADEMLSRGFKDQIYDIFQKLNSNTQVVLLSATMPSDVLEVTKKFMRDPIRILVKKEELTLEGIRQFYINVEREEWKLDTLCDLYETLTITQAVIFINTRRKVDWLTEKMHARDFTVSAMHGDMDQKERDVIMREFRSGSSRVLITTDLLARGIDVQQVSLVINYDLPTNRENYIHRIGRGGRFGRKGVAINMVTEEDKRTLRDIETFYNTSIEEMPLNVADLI
UniProt P06730: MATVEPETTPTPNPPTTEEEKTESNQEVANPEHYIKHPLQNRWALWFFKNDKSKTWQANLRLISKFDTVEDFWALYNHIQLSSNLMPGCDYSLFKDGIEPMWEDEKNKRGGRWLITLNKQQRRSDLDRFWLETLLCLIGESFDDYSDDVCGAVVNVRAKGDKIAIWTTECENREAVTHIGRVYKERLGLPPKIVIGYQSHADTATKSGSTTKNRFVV

Legend:
Assay in all cases: co-IP
[1] = biological target: T1, IBTK, ectopically expressed (UniProt Q9P2D0)
T1 sequence: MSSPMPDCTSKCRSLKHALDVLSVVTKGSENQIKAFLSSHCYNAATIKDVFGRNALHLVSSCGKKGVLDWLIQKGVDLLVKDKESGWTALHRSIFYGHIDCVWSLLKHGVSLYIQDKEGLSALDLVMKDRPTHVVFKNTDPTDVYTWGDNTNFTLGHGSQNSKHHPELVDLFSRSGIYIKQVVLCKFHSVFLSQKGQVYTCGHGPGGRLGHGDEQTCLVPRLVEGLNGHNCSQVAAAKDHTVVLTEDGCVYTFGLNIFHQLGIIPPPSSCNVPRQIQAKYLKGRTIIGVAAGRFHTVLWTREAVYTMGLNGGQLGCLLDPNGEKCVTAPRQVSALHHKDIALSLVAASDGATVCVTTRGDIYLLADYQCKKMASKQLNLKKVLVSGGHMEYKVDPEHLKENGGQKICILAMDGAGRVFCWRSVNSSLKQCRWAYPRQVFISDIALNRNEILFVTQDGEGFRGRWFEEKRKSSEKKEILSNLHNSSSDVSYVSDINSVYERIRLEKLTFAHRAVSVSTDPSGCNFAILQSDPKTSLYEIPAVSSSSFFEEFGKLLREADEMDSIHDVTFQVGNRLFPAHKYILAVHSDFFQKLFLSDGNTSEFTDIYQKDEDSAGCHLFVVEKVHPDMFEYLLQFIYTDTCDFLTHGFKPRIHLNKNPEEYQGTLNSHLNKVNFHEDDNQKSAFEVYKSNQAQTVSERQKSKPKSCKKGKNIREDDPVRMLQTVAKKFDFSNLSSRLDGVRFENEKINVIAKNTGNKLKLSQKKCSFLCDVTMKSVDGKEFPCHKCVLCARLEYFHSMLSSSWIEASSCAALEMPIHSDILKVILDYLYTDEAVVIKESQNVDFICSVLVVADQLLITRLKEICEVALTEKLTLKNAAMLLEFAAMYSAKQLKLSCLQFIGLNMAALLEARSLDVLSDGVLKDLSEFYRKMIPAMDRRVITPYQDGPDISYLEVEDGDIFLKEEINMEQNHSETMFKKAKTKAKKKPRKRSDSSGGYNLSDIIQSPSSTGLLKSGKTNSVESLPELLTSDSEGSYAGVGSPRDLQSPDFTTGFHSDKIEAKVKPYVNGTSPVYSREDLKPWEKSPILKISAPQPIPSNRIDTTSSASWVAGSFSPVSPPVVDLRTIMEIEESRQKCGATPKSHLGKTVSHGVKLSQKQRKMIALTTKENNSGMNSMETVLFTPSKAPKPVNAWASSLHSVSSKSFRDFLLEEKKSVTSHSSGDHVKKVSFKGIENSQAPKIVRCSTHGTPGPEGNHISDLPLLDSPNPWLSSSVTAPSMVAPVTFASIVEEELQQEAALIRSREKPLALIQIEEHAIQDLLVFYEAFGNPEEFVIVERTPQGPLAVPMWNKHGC

FLAG-BirA*-IBTK = biological target: T2, FLAG-BirA*-IBTK (UniProt Q9P2D0)
T2 sequence: T1 sequence

[2] = biological target: T3, IBTK, endogenous (human (endogenous in 293T)) (UniProt Q9P2D0)
T3 sequence: T1 sequence

| binding [1] | binding (FLAG-BirA*-IBTK) | binding [2] | Substance |
| --- | --- | --- | --- |
| binds |  |  | S6K1, in transfected 293T cells (from UniProt P23443 1-525) (enzyme) |
| binds |  |  | eIF4A2, ectopically expressed (from UniProt Q14240 1-407) |
|  | binds | binds | eIF4A2, endogenous (from UniProt Q14240 1-407) |
| binds |  |  | eIF4A3, ectopically expressed (from UniProt P38919 1-411) |
|  | binds |  | eIF2α, endogenous (from UniProt P05198 1-315) |
| binds |  |  | eIF4A1, ectopically expressed (from UniProt P60842 1-406) |
|  | no binding |  | eIF4E, endogenous (from UniProt P06730 1-217) |
|  | binds | binds | eIF4A1, endogenous (from UniProt P60842 1-406) |
|  |  | binds | S6K1, endogenous (from UniProt P23443 1-525) (enzyme) |
|  | binds | binds | eIF4A3, endogenous (from UniProt P38919 1-411) |
